# PubChem BioAssay AID1347423 (Functional Genomics Laboratory (NCATS/FGL), 2020)
# Out of some 52,000 sequences screened, about 210 (0.4%) were called active.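 How the source made its calls: active means gene whose silencing raises cell survival under the drug, median off-target-corrected z-score across its silencing RNAs 2 or more; inactive means the rest.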 The list shows a part of the results.
# Assay: Resistance to Poly (ADP-Ribose) Polymerase inhibitor: Gene Identification via Genome-wide siRNA Screen
# Conditions: mouse BRCA2 R2336H ES cells, olaparib, CellTiter-Glo viability; hits give high values
# How it was run: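 Genome-wide siRNA screen (3 siRNAs/gene, 20 nM) in mouse ES cells carrying hypomorphic BRCA2 R2336H; olaparib 500 nM added 48 h post-transfection, CellTiter-Glo viability 72 h later. Normalized to plate-median negative control; MAD z-scores, gene median, seed-adjusted.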
row,Sequence,z-score
1,GGAUGAAGAGAAAGACAAGTT against Zipro1,inactive: -1.71
2,GCAAAGUUACACAUCAAAGTT against Agtr1,inactive: 1.32
3,CCUAUGGAAGGUUUAAGAUTT against Ptpn21,inactive: 0.314
4,GGCUAGAGACUUGGUUUUUTT against E430025L02Rik,inactive: 1.23
5,CCUCUUGGCCUCCUUUGAUTT against Tas2r143,inactive: -0.729
6,CCUAGAUGACACUUGGGUGTT against Nup35,inactive: -1.28
7,GGGAUAUCCCAGAACAAGATT against D8Ertd531e,inactive: -1.8
8,CGAAGUUCCCUUUGAGUUUTT against 2610024G14Rik,inactive: 0.888
9,GGGCCAAUAAAGCAACUGCTT against Laptm5,inactive: 0.781
10,GGUAGAAUCCGGUUACCACTT against Tox,inactive: 0.763
11,GGAGAAGAAGAAAAGAACATT against Pom121,inactive: -3.12
12,GUGUAUGCGCUGAUCCUAUTT against 1700020N01Rik,inactive: 2.32
13,GGGAGCUAGCAAAAUCGGATT against Eif4g3,inactive: 0.652
14,GGAACUGCUCAUAAAAACATT against Evi2b,inactive: 1.43
15,GGGAGACUUUGUACGGAAGTT against Gars,inactive: -2.19
16,CCAUGGCUUAAAAGCCGAATT against Mapt,inactive: 1.75
17,GCUAAUUAUUGAGUAUGCGTT against Klhl10,inactive: 0.612
18,GGAAGAUACAAGUCUUUUUTT against Akap12,inactive: 0.925
19,CGUACCAGAUGAGCUAAGUTT against Zfp513,inactive: 0.118
20,GGAAGACGAAUUCUUAAGUTT against H2-M10.6,inactive: -0.227
21,GGCCAUCAUAUCACCAUUUTT against BC025872,inactive: 1.76
22,GGAUAUUUGCUUCUUUCACTT against A330008L17Rik,inactive: 0.00592
23,GGACUAUGUCUUUGACAAUTT against Tcfcp2l2,inactive: 0.0983
24,CCAUAGAGAGUGCAGGUGATT against Mrpl39,inactive: -0.399
25,GCUUGAUCGCUUUCAACUCTT against 0610011B16Rik,inactive: 0.779
26,GGACUACAUAAACUUGUACTT against Nme5,inactive: -1.78
27,GCGGCUACGUGUUUGACUATT against Csnk1g2,inactive: 0.339

# Taken from the entries so far for reference:
row,Sequence,z-score
7,GGGAUAUCCCAGAACAAGATT against D8Ertd531e,inactive: -1.8
8,CGAAGUUCCCUUUGAGUUUTT against 2610024G14Rik,inactive: 0.888
9,GGGCCAAUAAAGCAACUGCTT against Laptm5,inactive: 0.781

# (list continues)

row,Sequence,z-score
1,GGAGAUUGUGAGAGCCAUGTT against Kcnab3,inactive: -0.137
2,CCAGUAAGUUGCAUUCGAATT against Defb8,inactive: 0.188
3,GGAAUCUGAUACCCAAGGATT against 1700007H16Rik,inactive: -1.4
4,GGGACAUGGGAAGAACUCUTT against Gpr87,inactive: 0.542
5,GGAAAGGAAGAAGAAAUGATT against Rab13,inactive: 0.291
6,CCCUUAGGGAGUGCUGUGATT against Gc,inactive: -0.802
7,GGAAGCAUUGAUUUUCAUCTT against Prok2,inactive: 0.372
8,GGACCACAGGGUCAAUUUCTT against Icam5,inactive: 0.681
9,CCAUACCGAUCAAAUUCCCTT against Pfn2,inactive: 0.355
10,GGCCACACAGAUUAUCUUGTT against V1rc18,inactive: 0.13
11,GCUAAGAACAUUCACAUAATT against Pon3,inactive: -0.694
12,GGAAGCAGAGCCCGAAAAATT against MGC67311,inactive: -0.223
13,GGCAGAAUAAUAAUCCACATT against Ovol1,inactive: 0.271
14,CCUAGGGUAUUCAAUCAUGTT against Nfya,inactive: -0.711
15,CCGUGUGGUCUGAUAAAAGTT against Fbxl8,inactive: -0.881
16,GGAUUCCAGAUUAAAUGAUTT against Recc1,inactive: -0.171
17,GGCAGAAUACUAUAUAUAGTT against 2310042M24Rik,inactive: -1.11
18,CCUAGGGACAUUGGUUAUUTT against Sema4f,inactive: 0.221
19,GUCAGUAUGGAGCGAUGGGTT against D11Bwg0280e,inactive: -0.164
20,GGACGACAAUCGACAAUCGTT against Acta1,inactive: -0.251
21,GGACCAGCUGAUAGAAGUCTT against Ap3b2,inactive: 1.14
22,GGAGAUUAGUUACUUCCAGTT against Slc1a7,inactive: 0.865
23,GCUAGUGAGUCGCUUGACUTT against 4833412N02Rik,inactive: -1.95
24,GGGAAAAGAACUUGCAUGUTT against Tmsb4x,inactive: 2.08
25,GCAGCACCUAAUGGGCAAATT against Bcl9l,inactive: -0.202
26,CCAGUUAAAAAGGUUCCAATT against A730037C10Rik,inactive: -0.805
27,GAGAUGCAUUGUUUCAGGUTT against V1rh9,inactive: 0.465

row,Sequence,z-score
1,GGUUUUGGAAAAAGUGGAUTT against 1500003O03Rik,inactive: 0.795
2,GCUCGUACAAUGCAUUGCCTT against Thnsl1,inactive: 0.858
3,GGCACUCCUUCUCAGUUGCTT against Chek2,inactive: 0.2
4,GGUGGUAGAACCACUGAAGTT against Pxk,inactive: -0.442
5,CGUGUCUUUAUUCAUCCCATT against C1s,inactive: 0.29
6,GCUGCUACGCCAAACUUAATT against Ssx2ip,inactive: 0.988
7,GCUUCGUAAAGUUUGCACUTT against Exosc10,inactive: -0.535
8,CCUGCUAGAGCCAUUAUUGTT against 0610016J10Rik,inactive: 0.336
9,GGUCAUUGAUCUCAGCAACTT against Optc,inactive: -0.456
10,CCAGCCUCUUCUAAUACACTT against Preb,inactive: -0.0906
11,GCCAUGUACUCCUUACUGGTT against Mrc1,inactive: 0.164
12,GCGAUAGAAGCACUCCAAGTT against Bub1b,inactive: 0.119
13,CGGCGACUUCUUCAGCUAUTT against Aldh2,inactive: 1.12
14,CCCUUCACAACUUCUUAAUTT against Olfr872,inactive: 0.609
15,GAAGUCCACUGAACUUCUGTT against H3f3a,inactive: 0.742
16,GGACUGAGGAGAGCAAUAUTT against Cts6,inactive: -0.449
17,GGAUGUAUGCCAAAGAAUUTT against Fmo5,inactive: 2.41
18,GGUUGGCCAUAUAAAGAGATT against Smarca3,active: 0.771
19,GGGACUUAUGUCCAGGAAGTT against Centg3,inactive: 1.11
20,GGAGCUUACUACAAAGCUATT against Gnb4,inactive: -0.209
21,GGACUCUGGACCUUAUGCUTT against 4930425N13Rik,inactive: -0.255
22,CGUGUUCUUGCUCAAGGAGTT against Rilp,inactive: -0.546
23,GGGUUAAUGCAGCUCACGUTT against Lrrtm1,inactive: 0.54
24,CCAUUCAUUUUUGAUGACCTT against Tlr3,inactive: 1.03
25,GGCGGGAGUACUAAAUGAATT against Eppk1,inactive: -0.446
26,GGUUCGUCGCCUUUUAGGGTT against Alx4,inactive: -0.3
27,GGACAGCAUCCGAAAAGUGTT against Thbs1,inactive: -2.14

row,Sequence,z-score
1,GCAAUUAAGGUAGAGUCUGTT against Rassf1,inactive: -0.115
2,GCAGAUUCUCCGAUUACACTT against Fbxw8,inactive: 0.914
3,GCCCAUAGUAUAAAAUACCTT against 2810422M04Rik,inactive: 0.811
4,GCCACCCACCUAAAAUCAATT against BC025872,inactive: 0.573
5,GCCUUAAGAGAUGUAUUUCTT against V1rc14,inactive: -0.542
6,GCCUGCUAGAGGAUUUCAATT against 4930534B04Rik,inactive: -1.62
7,GGACUAGAAGAUCUACACUTT against Olfr67,inactive: -0.232
8,CGACCACAUUAUUGGGUUUTT against Senp8,inactive: -1.22
9,CCUGCUGGUAUAGAGUAUGTT against Eps8l2,inactive: 0.18
10,CCUUGUUGUUUGUCUCGACTT against Ern1,inactive: 0.406
11,GGUUUUGUCUGAUAAAACATT against 1110007C02Rik,inactive: 1.54
12,GGGACAACACAUUAACUUATT against Uckl1,inactive: 0.538
13,GGCAUUGAAGCUGAAAAGATT against 1700052N19Rik,inactive: 0.502
14,GAUAUUUCCACUCUAGCACTT against Fcrlm2,inactive: -0.141
15,GGCAGAACAGGCAUUUUCATT against 9130020G22Rik,inactive: -1.42
16,GGACUUUGUGGACAAAAUUTT against 0610009H04Rik,inactive: -0.266
17,CCCAAGUGGUAAGAUUGGUTT against Rps3,inactive: -2.3
18,GGGACACUAGAAGUAGGGATT against Pramel5,inactive: 0.667
19,CCCUAGACCAGUAAAUACCTT against 1110002H13Rik,inactive: 1.38
20,AGGAAAGAAAAUAUGCUGATT against Cox17,inactive: 0.48
21,GGACUCUUUUCUACGUGGATT against Klhl1,active: 3.47
22,GCAUGUAUGCUGGAAAAUCTT against MGC107415,inactive: -0.759
23,GGGCAAUGAUUUAUACCAUTT against Atp5b,inactive: 2.57
24,CGAGUUCGGUAUGAGUGGATT against Clptm1,inactive: -1.24

# An excerpt of these results, with tabs:
row	Sequence	z-score
15	GGCAGAACAGGCAUUUUCATT against 9130020G22Rik	inactive: -1.42
16	GGACUUUGUGGACAAAAUUTT against 0610009H04Rik	inactive: -0.266
17	CCCAAGUGGUAAGAUUGGUTT against Rps3	inactive: -2.3
